{
  "sequences": {"note": "Amino acid sequences for entries named in this document (tags omitted). A change or cut given only in a name is not applied to a line headed by its entry.", "UniProt Q99607": "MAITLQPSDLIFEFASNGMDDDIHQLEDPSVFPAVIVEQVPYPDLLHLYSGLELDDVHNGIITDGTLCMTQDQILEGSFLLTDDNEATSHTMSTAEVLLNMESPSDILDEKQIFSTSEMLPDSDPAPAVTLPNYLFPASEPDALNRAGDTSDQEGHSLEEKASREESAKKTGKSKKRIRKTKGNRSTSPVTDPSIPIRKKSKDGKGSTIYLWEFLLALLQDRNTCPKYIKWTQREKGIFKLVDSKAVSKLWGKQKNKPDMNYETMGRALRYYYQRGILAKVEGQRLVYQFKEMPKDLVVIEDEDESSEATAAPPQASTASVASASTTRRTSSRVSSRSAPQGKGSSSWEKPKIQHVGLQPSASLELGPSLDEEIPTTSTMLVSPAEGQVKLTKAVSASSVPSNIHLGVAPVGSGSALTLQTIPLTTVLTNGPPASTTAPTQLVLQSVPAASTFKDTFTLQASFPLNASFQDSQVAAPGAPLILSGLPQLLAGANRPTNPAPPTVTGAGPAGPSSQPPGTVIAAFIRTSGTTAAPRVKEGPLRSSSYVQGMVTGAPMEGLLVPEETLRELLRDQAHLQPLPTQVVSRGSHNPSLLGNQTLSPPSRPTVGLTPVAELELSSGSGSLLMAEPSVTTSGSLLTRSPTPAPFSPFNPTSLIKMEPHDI"},
  "source": "paper PMC7862700",
  "note": "This is a selection; strong and weak results do not stand in their true shares. At the low end of the ranking, values are background and their order means little.",
  "data": [
    {"target": "ELF4 (UniProt Q99607)", "assay": "DAPPL (digital affinity profiling via proximity ligation, sequencing)", "settings": "10 mM Tris-HCl pH 7.5, 50 mM NaCl, 1 mM DTT, 4% glycerol, room temperature, 30 min; GST-TFs on glutathione beads, 16-mer random dsDNA library, 0.1% …; high values mean tight binding; double strand, one strand shown; scale: fold enrichment (6-mer frequency, TF over GST control)", "values": [
      {"sequence": "GATATG", "binding signal": 1.11},
      {"sequence": "TCAAGC", "binding signal": 0.986},
      {"sequence": "TCACTA", "binding signal": 1.12},
      {"sequence": "AGCATC", "binding signal": 1.02},
      {"sequence": "GCAAAC", "binding signal": 1.06},
      {"sequence": "GAACTA", "binding signal": 1.21}
    ]},
    {"target": "T1, ETV2 (UniProt O00321)", "T1 sequence": "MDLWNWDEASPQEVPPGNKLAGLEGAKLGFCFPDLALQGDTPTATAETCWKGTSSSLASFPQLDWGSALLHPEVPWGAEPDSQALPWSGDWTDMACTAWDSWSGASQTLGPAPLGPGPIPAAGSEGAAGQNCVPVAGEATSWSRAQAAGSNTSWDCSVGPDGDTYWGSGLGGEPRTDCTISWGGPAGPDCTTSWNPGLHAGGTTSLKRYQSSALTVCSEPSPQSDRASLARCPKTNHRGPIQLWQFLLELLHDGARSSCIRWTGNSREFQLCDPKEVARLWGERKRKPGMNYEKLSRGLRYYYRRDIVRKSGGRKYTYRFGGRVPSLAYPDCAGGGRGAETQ", "assay": "DAPPL (digital affinity profiling via proximity ligation, sequencing)", "settings": "10 mM Tris-HCl pH 7.5, 50 mM NaCl, 1 mM DTT, 4% glycerol, room temperature, 30 min; GST-TFs on glutathione beads, 16-mer random dsDNA library, 0.1% …; high values mean tight binding; double strand, one strand shown; scale: fold enrichment (6-mer frequency, TF over GST control)", "values": [
      {"sequence": "ACCTCT", "binding signal": 1.35},
      {"sequence": "TCAAAC", "binding signal": 1.3},
      {"sequence": "GTCCGC", "binding signal": 0.919},
      {"sequence": "TGTTCG", "binding signal": 0.915},
      {"sequence": "AACCGC", "binding signal": 1.12},
      {"sequence": "AAGTTG", "binding signal": 0.838},
      {"sequence": "CTATCG", "binding signal": 0.974},
      {"sequence": "TACCAT", "binding signal": 1.15},
      {"sequence": "CATCGC", "binding signal": 0.97},
      {"sequence": "TTTGTC", "binding signal": 1.16},
      {"sequence": "TCCATG", "binding signal": 1.2},
      {"sequence": "CTACGT", "binding signal": 1.03},
      {"sequence": "GCTAGC", "binding signal": 1.39},
      {"sequence": "AAAGCC", "binding signal": 0.993},
      {"sequence": "ACGGTA", "binding signal": 1.03},
      {"sequence": "TGGTGG", "binding signal": 1.03},
      {"sequence": "TTCGGT", "binding signal": 1.13},
      {"sequence": "ACTACA", "binding signal": 1.11},
      {"sequence": "GCAATA", "binding signal": 1.01},
      {"sequence": "CTCTAT", "binding signal": 1.21},
      {"sequence": "AAGCGC", "binding signal": 0.969},
      {"sequence": "GTTGTA", "binding signal": 0.989},
      {"sequence": "GTAGTT", "binding signal": 1.04},
      {"sequence": "GTTATA", "binding signal": 0.972},
      {"sequence": "CTATGG", "binding signal": 1.28},
      {"sequence": "CACCAC", "binding signal": 1.14},
      {"sequence": "TGACGG", "binding signal": 0.966},
      {"sequence": "ATAGCG", "binding signal": 0.969},
      {"sequence": "CGATCA", "binding signal": 0.995},
      {"sequence": "CACACG", "binding signal": 1.24},
      {"sequence": "GTCCCA", "binding signal": 0.995},
      {"sequence": "CGTCCA", "binding signal": 0.983},
      {"sequence": "CACTAC", "binding signal": 1.34},
      {"sequence": "ACCACA", "binding signal": 0.996},
      {"sequence": "GATATG", "binding signal": 0.938},
      {"sequence": "TCAAGC", "binding signal": 1.09},
      {"sequence": "TCACTA", "binding signal": 1.18},
      {"sequence": "AGCATC", "binding signal": 0.944},
      {"sequence": "GCAAAC", "binding signal": 0.937},
      {"sequence": "GAACTA", "binding signal": 1.31}
    ]},
    {"target": "T2, ETV3L (UniProt Q6ZN32)", "T2 sequence": "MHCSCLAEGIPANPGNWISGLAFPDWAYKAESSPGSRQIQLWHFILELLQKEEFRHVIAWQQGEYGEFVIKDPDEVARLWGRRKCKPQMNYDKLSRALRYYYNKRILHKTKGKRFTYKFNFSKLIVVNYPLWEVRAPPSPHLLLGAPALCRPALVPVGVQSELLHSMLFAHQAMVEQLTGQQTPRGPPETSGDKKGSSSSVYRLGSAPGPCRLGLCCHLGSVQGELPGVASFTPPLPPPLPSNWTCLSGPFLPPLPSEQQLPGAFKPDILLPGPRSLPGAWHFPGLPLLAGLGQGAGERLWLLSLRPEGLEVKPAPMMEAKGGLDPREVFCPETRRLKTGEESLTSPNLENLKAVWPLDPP", "assay": "DAPPL (digital affinity profiling via proximity ligation, sequencing)", "settings": "10 mM Tris-HCl pH 7.5, 50 mM NaCl, 1 mM DTT, 4% glycerol, room temperature, 30 min; GST-TFs on glutathione beads, 16-mer random dsDNA library, 0.1% …; high values mean tight binding; double strand, one strand shown; scale: fold enrichment (6-mer frequency, TF over GST control)", "values": [
      {"sequence": "ACCTCT", "binding signal": 1.32},
      {"sequence": "TGTTCG", "binding signal": 1.01},
      {"sequence": "AACCGC", "binding signal": 1.08},
      {"sequence": "CTATCG", "binding signal": 1.07},
      {"sequence": "TTTGTC", "binding signal": 1.32},
      {"sequence": "AAAGCC", "binding signal": 0.98},
      {"sequence": "ACGGTA", "binding signal": 0.947},
      {"sequence": "TGGTGG", "binding signal": 0.95},
      {"sequence": "TTCGGT", "binding signal": 1.11},
      {"sequence": "GCAATA", "binding signal": 0.951},
      {"sequence": "AAGCGC", "binding signal": 1.13},
      {"sequence": "GTAGTT", "binding signal": 1.01},
      {"sequence": "GTTATA", "binding signal": 1.06},
      {"sequence": "CTATGG", "binding signal": 1.16},
      {"sequence": "CACCAC", "binding signal": 1.19},
      {"sequence": "TGACGG", "binding signal": 0.893},
      {"sequence": "ATAGCG", "binding signal": 0.956},
      {"sequence": "GTCCCA", "binding signal": 1.13},
      {"sequence": "GATATG", "binding signal": 1.08},
      {"sequence": "TCAAGC", "binding signal": 1.08},
      {"sequence": "GAACTA", "binding signal": 1.27}
    ]}
  ]
}
